Assay results: PubChem BioAssay AID256 (DTP/NCI, 2004)
The list does not hold the whole screen: it gathers tests that were run many times, whatever their T/C, doses with no T/C, and many T/C values between a quarter and a half above the control. Other doses and runs of a compound stand elsewhere. T/C: endpoint of the treated group in % of that of the vehicle group. Some doses have a count of surviving animals in place of a T/C: the source files T/C as zero there, which appears to mark a toxic dose or a test without result, not a measured value. Some survivor counts are full or nearly so, which does not show that the dose was tolerated: survival well below the control is almost never listed, so the zero probably covers shortened survival too. Counts of survivors are from the toxicity check (mostly the fifth day) where no day follows; animals may have died later. Schedule codes are those of the source, taken here to give the interval after Q, in days (D) or hours (H), and the number of doses after X. Where survival is the endpoint, this PubChem deposit counts one and a half times the control or more as active, and values a quarter to a half above the control carry no call in these data; other NCI protocols may use other cut-offs. Additions like (4×) count equal records among those shown. Some doses were run more than once; the values are given in rising order.

Test system: CD2F1 mice, L1210 leukemia ip, survival T/C
Experiment: NCI In Vivo Anticancer Drug Screen. Data for tumor model L1210 Leukemia (intraperitoneal) in CD2F1 (CDF1) mice
Conditions: higher T/C = longer survival
How it was run: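 Ratio T/C, where T is the treated-group value and C the vehicle-dosed control value, from mice implanted with a transplantable tumor.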

[1] = T/C endpoint: mean survival time, dose: 100.0 mg/kg/injection, schedule: Q01DX009 (ip), vehicle: saline
[2] = T/C endpoint: mean survival time, dose: 50.0 mg/kg/injection, schedule: Q01DX009 (ip), vehicle: saline with Tween-80
[3] = T/C endpoint: mean survival time, dose: 400.0 mg/kg/injection, schedule: Q04DX002 (ip), vehicle: saline with Tween-80
[4] = T/C endpoint: mean survival time, dose: 400.0 mg/kg/injection, schedule: Q01DX009 (ip), vehicle: saline with Tween-80
[5] = T/C endpoint: mean survival time, dose: 400.0 mg/kg/injection, schedule: Q04DX003 (ip), vehicle: saline with Tween-80

## CO[C@]12[C@@H](COC(=O)NCCO)C3=C(C(=O)C(C)=C(N)C3=O)N1C[C@@H]1[C@H]2N1C (stereo not given in full)
T/C endpoint: mean survival time, dose: 25.0 mg/kg/injection, schedule: Q01DX009 (ip), vehicle: saline
  T/C: 125 % of control
[1]
  T/C: 143 % of control
T/C endpoint: mean survival time, dose: 150.0 mg/kg/injection, schedule: Q01DX001 (ip), vehicle: carboxymethylcellulose (CMC)
  T/C: 148 % of control
T/C endpoint: mean survival time, dose: 300.0 mg/kg/injection, schedule: Q01DX001 (ip), vehicle: carboxymethylcellulose (CMC)
  T/C: 142 % of control
T/C endpoint: mean survival time, dose: 300.0 mg/kg/injection, schedule: Q01DX001 (ip), vehicle: saline
  T/C: 135 % of control

## O=C(CC(=Nc1ccccc1)c1ccccc1)c1ccccc1.O=C(CC(=Nc1ccccc1)c1ccccc1)c1ccccc1.[Cu]
[2]
  survivor count: 3 of 6

## ONc1ncnc2nc[nH]c12
T/C endpoint: mean survival time, dose: 89.0 mg/kg/injection, schedule: Q01DX009 (ip), vehicle: saline
  T/C: 128 % of control
T/C endpoint: mean survival time, dose: 133.0 mg/kg/injection, schedule: Q01DX009 (ip), vehicle: saline
  T/C: 140 % of control
T/C endpoint: mean survival time, dose: 200.0 mg/kg/injection, schedule: Q01DX009 (ip), vehicle: saline
  T/C: 134 % of control
T/C endpoint: mean survival time, dose: 300.0 mg/kg/injection, schedule: Q01DX009 (ip), vehicle: saline
  T/C: 138 % of control

## COc1cccc2c1C(=O)c1c(O)c3c(c(O)c1C2=O)C[C@@](O)(C(O)CO)C[C@@H]3OC1CC(N(Cc2ccccc2)Cc2ccccc2)C(O)C(C)O1 (stereo not given in full)
T/C endpoint: median survival time, dose: 12.5 mg/kg/injection, schedule: Q01DX009 (ip), vehicle: water
  T/C: 127 % of control
T/C endpoint: median survival time, dose: 25.0 mg/kg/injection, schedule: Q01DX009 (ip), vehicle: water
  T/C: 134 % of control (2×)
T/C endpoint: median survival time, dose: 50.0 mg/kg/injection, schedule: Q01DX009 (ip), vehicle: water
  T/C: 144 and 145 % of control
T/C endpoint: median survival time, dose: 200.0 mg/kg/injection, schedule: Q01DX009 (ip), vehicle: water
  survivor count: 3 of 6
T/C endpoint: median survival time, dose: 400.0 mg/kg/injection, schedule: Q01DX009 (ip), vehicle: water
  survivor count: 1 of 6

## CC(NC(=O)NCCCl)c1ccccc1 (stereo not given)
[1]
  survivor count: 2 of 6

## CCOC(=S)SCCSC
T/C endpoint: mean survival time, dose: 400.0 mg/kg/injection, schedule: Q01DX001 (ip), vehicle: saline
  survivor count: 1 of 4

## CCN(CC)CCCC(C)NC(C)CCCN(CC)CC (stereo not given)
T/C endpoint: mean survival time, dose: 100.0 mg/kg/injection, schedule: Q01DX009 (ip), vehicle: Klucel (hydroxypropylcellulose) (HPC)
  survivor count: 3 of 6
T/C endpoint: mean survival time, dose: 200.0 mg/kg/injection, schedule: Q01DX009 (ip), vehicle: Klucel (hydroxypropylcellulose) (HPC)
  survivor count: 0 of 6
T/C endpoint: mean survival time, dose: 400.0 mg/kg/injection, schedule: Q01DX009 (ip), vehicle: Klucel (hydroxypropylcellulose) (HPC)
  survivor count: 0 of 6

## CCCC(O)C(C)(C)[N+](=O)[O-] (stereo not given)
[2]
  survivor count: 0 of 3
T/C endpoint: mean survival time, dose: 100.0 mg/kg/injection, schedule: Q01DX009 (ip), vehicle: saline with Tween-80
  survivor count: 0 of 3
T/C endpoint: mean survival time, dose: 200.0 mg/kg/injection, schedule: Q01DX009 (ip), vehicle: saline with Tween-80
  survivor count: 0 of 3

## S=C=Nc1ccccn1
[3]
  survivor count: 0 of 3

## CCCn1c(O)c(C=N)c(=O)[nH]c1=O
[4]
  survivor count: 2 of 6

## O=C(O)/C=C/C(=O)Nc1ccc(N=Nc2ccccc2)cc1
[5]
  survivor count: 3 of 6

## Clc1cc(CBr)c(CBr)cc1Cl
T/C endpoint: mean survival time, dose: 100.0 mg/kg/injection, schedule: Q04DX003 (ip), vehicle: saline with Tween-80
  survivor count: 3 of 6
T/C endpoint: mean survival time, dose: 200.0 mg/kg/injection, schedule: Q04DX003 (ip), vehicle: saline with Tween-80
  survivor count: 2 of 6
[5]
  survivor count: 0 of 6

## CCCN1COC(OCC)C(C)(C)C1 (stereo not given)
[4]
  survivor count: 1 of 6
T/C endpoint: mean survival time, dose: 400.0 mg/kg/injection, schedule: Q01DX009 (ip), vehicle: saline
  survivor count: 3 of 6

## CC1=C/C(O)CC(=O)Cc2nc(co2)C(=O)N2CCC=C2C(=O)OC(C(C)C)C(C)/C=C\C(=O)NC/C=C\1 (stereo not given)
T/C endpoint: median survival time, dose: 400.0 mg/kg/injection, schedule: Q01DX009 (ip), vehicle: Klucel (hydroxypropylcellulose) (HPC)
  survivor count: 5 of 6

## CCCCCCCS(=O)CCCl (stereo not given)
[3]
  survivor count: 2 of 3

## Cc1ccc(-c2cc(O)cc(-c3ccc(C)cc3C)c2O)c(C)c1
T/C endpoint: mean survival time, dose: 100.0 mg/kg/injection, schedule: Q01DX001 (ip), vehicle: saline with Tween-80
  survivor count: 6 of 6
T/C endpoint: mean survival time, dose: 200.0 mg/kg/injection, schedule: Q01DX001 (ip), vehicle: saline with Tween-80
  survivor count: 6 of 6
